Test results as given in PMC8971729.
Results are given in words; binding and its absence hold for the method and conditions named. Some binding calls cover weakened binding; strength is not graded here.

Amino acid sequences for entries named in this document (tags omitted). Residues count along the entry.
UniProt P78310, residues 20-365: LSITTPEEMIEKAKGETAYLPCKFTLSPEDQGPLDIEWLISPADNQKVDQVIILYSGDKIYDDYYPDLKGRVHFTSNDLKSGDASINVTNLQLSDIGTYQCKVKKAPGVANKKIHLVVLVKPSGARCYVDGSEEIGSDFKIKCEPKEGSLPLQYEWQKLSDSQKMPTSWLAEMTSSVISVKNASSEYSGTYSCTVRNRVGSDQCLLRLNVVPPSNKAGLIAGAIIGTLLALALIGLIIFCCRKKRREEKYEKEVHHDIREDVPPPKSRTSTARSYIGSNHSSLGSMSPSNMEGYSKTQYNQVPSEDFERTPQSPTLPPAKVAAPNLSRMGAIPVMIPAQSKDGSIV

Biological target: CAR on CHO-CAR cells (UniProt P78310)
Experiment: flow cytometry on cells; CHO-CAR cells with serial dilutions of knob protein (0.0001-100 ug/10^5 cells) for 1 h on ice, washed, then stained for CAR with anti-CAR (RmcB) and a labelled secondary antibody; IC50 by non-linear regression; apparent; only the binder purified

B1: HAdV-C5 fiber knob protein (domain or fragment, UniProt P11818 394-581)
chain: KNNDKLTLWTTPAPSPNCRLNAEKDAKLTLVLTKCGSQILATVSVLAVKGSLAPISGTVQSAHLIIRFDENGVLLNNSFLDPEYWNFRNGDLTEGTAYTNAVGFMPNLSAYPKSHGKTAKSNIVSQVYLNGDKTKPVTLTITLNGTQETGDTTPSAYSMSFSWDWSGHNYINEIFATSSYTFSYIAQE
  binding: binds
